Assay results as given in paper PMC4821887, “Identification of chemicals that mimic transcriptional changes associated with autism, brain aging and neurodegeneration” (Nature Communications, 2016).
This continues a long series; more values of the same kind are listed elsewhere.

System: mouse cortical cultures
Experiment: RNA-seq differential expression (DESeq) against matched vehicle
Assay type: cell-based
Description: Figure 4 Cluster 2 chemicals alter expression of a common set of genes. […] RNA-seq was performed in quadruplicate after treating cortical cultures with fenamidone (10 μM) or pyraclostrobin (0.1 μM) for 24 h (n=3 biological replicates) and compared with matched vehicle controls using DESeq to detect differentially expressed genes, listed in Supplementary Data 4.
Cultures were treated with the non-cytotoxic dose of each chemical, by exchanging half of the original medium with chemicals at 2 × concentration in prewarmed feeding medium, on DIV 7 for 24 h in 12-well plates at a density of 5 × 10^5 cells per well. RNA was isolated using RNeasy plus mini kit (Cat. #74134, Qiagen). […]. Samples were further assessed for quality using either an Agilent Bioanalyzer 2100 or TapeStation 2200 to obtain a RIN. RIN values exceeding 7 were used for sequencing. RNA samples were used to generate and barcode complementary DNA libraries using the TruSeq RNA Library Preparation Kit at the UNC High Throughput Sequencing Facility. Pools of 24 multiplexed samples were sequenced per lane on an Illumina HiSeq 2500 using 50-bp paired-end reads.
RNA-seq reads were filtered using TagDust and aligned to the reference mouse genome (mm9) with TopHat using default parameters. Reads aligning to ribosomal RNA genes were removed. Transcript abundance was estimated by computing Reads per kilobase per million mapped reads (RPKM) using RefSeq gene models aggregated by gene symbol. For differential expression analyses, raw counts over RefSeq exons were used, and then were compared across samples using DESeq[62].

## CSC1=N[C@@](C)(c2ccccc2)C(=O)N1Nc1ccccc1 [fenamidone]
Gene 1700071M16Rik
  MeanFenamidone: 47.8894
  log2FoldChange: 2.422
Gene 2810011L19Rik, Fenamidone vs vehicle, 4 reps, DESeq
  log2FoldChange: -1.328
Gene 2900097C17Rik
  MeanFenamidone: 879.595
  log2FoldChange: -0.9982
Gene 3110035E14Rik
  MeanFenamidone: 65.6357
  log2FoldChange: -1.755
Gene 6430548M08Rik
  MeanFenamidone: 247.802
  log2FoldChange: -1.08
Gene 9330182L06Rik
  MeanFenamidone: 70.9287
  log2FoldChange: -1.747
Gene AI836003
  MeanFenamidone: 86.4132
  log2FoldChange: -1.311
Gene Actn4
  MeanFenamidone: 967.177
  log2FoldChange: 1.402
Gene Adamtsl4
  MeanFenamidone: 38.54
  log2FoldChange: 2.1172
Gene Adap1
  MeanFenamidone: 360.507
  log2FoldChange: -1.033
Gene Adrb2
  MeanFenamidone: 17.4007
  log2FoldChange: 3.316
Gene Aen
  MeanFenamidone: 390.228
  log2FoldChange: 1.082
Gene Ak2
  MeanFenamidone: 157.125
  log2FoldChange: 1.256
Gene Apc
  MeanFenamidone: 2359.22
  log2FoldChange: -0.9219
Gene Aprt
  MeanFenamidone: 192.297
  log2FoldChange: 1.154
Gene Arpp21
  MeanFenamidone: 140.814
  log2FoldChange: -1.159
Gene Arrb1
  MeanFenamidone: 548.072
  log2FoldChange: -1.083
Gene B4galt6
  MeanFenamidone: 463.055
  log2FoldChange: -1.0721
Gene Bai3
  MeanFenamidone: 137.634
  log2FoldChange: -1.179
Gene Cbr3
  MeanFenamidone: 44.5128
  log2FoldChange: 1.707
Gene Ccsap
  MeanFenamidone: 35.8769
  log2FoldChange: -1.522
Gene Cd97
  MeanFenamidone: 39.1853
  log2FoldChange: 2.135
Gene Cdon
  MeanFenamidone: 305.607
  log2FoldChange: 1.499
Gene Celf4
  MeanFenamidone: 572.155
  log2FoldChange: -1.096
Gene Chst3
  MeanFenamidone: 41.872
  log2FoldChange: 2.262
Gene Clcn4-2
  MeanFenamidone: 599.844
  log2FoldChange: -1.05
Gene Cntnap4
  MeanFenamidone: 24.4827
  log2FoldChange: -1.829
Gene Col11a1
  MeanFenamidone: 277.951
  log2FoldChange: 2.141
Gene Cplx2
  MeanFenamidone: 964.275
  log2FoldChange: -1.034
Gene Dock1
  MeanFenamidone: 75.7001
  log2FoldChange: 2.3295
Gene Efhd2
  MeanFenamidone: 556.135
  log2FoldChange: 1.455
Gene Ehd4
  MeanFenamidone: 134.926
  log2FoldChange: 1.8
Gene Etnk1
  MeanFenamidone: 797.987
  log2FoldChange: -0.9999
Gene Fgfr1
  MeanFenamidone: 608.087
  log2FoldChange: 1.5897
Gene Fkbp10
  MeanFenamidone: 165.125
  log2FoldChange: 2.589
Gene Fstl1
  MeanFenamidone: 2425.52
  log2FoldChange: 1.359
Gene Gabra3
  MeanFenamidone: 93.5557
  log2FoldChange: -1.333
Gene Gabrb3
  MeanFenamidone: 872.267
  log2FoldChange: -1.093
Gene Gdap1
  MeanFenamidone: 372.634
  log2FoldChange: -1.399
Gene Glra2
  MeanFenamidone: 71.2829
  log2FoldChange: -1.9081
Gene Gm15800
  MeanFenamidone: 440.585
  log2FoldChange: -1.276
Gene Gnai2
  MeanFenamidone: 1601.49
  log2FoldChange: 1.213
Gene Golm1
  MeanFenamidone: 245.579
  log2FoldChange: 1.156
Gene Gpr85
  MeanFenamidone: 279.636
  log2FoldChange: -1.19
Gene Grin1os, Fenamidone vs vehicle, 4 reps, DESeq
  log2FoldChange: -1.485
Gene Grin2b
  MeanFenamidone: 174.034
  log2FoldChange: -1.02
Gene Hexa
  MeanFenamidone: 230.395
  log2FoldChange: 1.401
Gene Hivep3
  MeanFenamidone: 95.1993
  log2FoldChange: -1.146
Gene Hspa9
  MeanFenamidone: 701.159
  log2FoldChange: 1.0189
Gene Icam5
  MeanFenamidone: 42.5122
  log2FoldChange: -1.469
Gene Ier3
  MeanFenamidone: 76.5943
  log2FoldChange: 1.986
Gene Ifi30
  MeanFenamidone: 63.8047
  log2FoldChange: 2.487
Gene Igfbpl1
  MeanFenamidone: 247.504
  log2FoldChange: 1.858
Gene Iqgap1
  MeanFenamidone: 327.406
  log2FoldChange: 1.377
Gene Jph4
  MeanFenamidone: 625.788
  log2FoldChange: -1.023
Gene Kcna1
  MeanFenamidone: 77.6206
  log2FoldChange: -1.838
Gene Kcnma1
  MeanFenamidone: 80.7479
  log2FoldChange: -1.359
Gene Kit
  MeanFenamidone: 99.5781
  log2FoldChange: -1.188
Gene Lrrn3
  MeanFenamidone: 288.813
  log2FoldChange: -1.056
Gene Lyrm9
  MeanFenamidone: 70.2085
  log2FoldChange: -1.414
Gene M6pr
  MeanFenamidone: 315.313
  log2FoldChange: 1.239
Gene Mcm2
  MeanFenamidone: 114.273
  log2FoldChange: 1.719
Gene Mdga1
  MeanFenamidone: 167.86
  log2FoldChange: -1.06
Gene Mpped2
  MeanFenamidone: 90.3666
  log2FoldChange: -1.244
Gene Mybl1
  MeanFenamidone: 113.866
  log2FoldChange: 1.538
Gene Ncdn
  MeanFenamidone: 819.17
  log2FoldChange: -1.031
Gene Ncoa7
  MeanFenamidone: 93.6951
  log2FoldChange: -1.263
Gene Negr1
  MeanFenamidone: 666.87
  log2FoldChange: -1.173
Gene Nmnat2
  MeanFenamidone: 390.018
  log2FoldChange: -0.988
Gene Nnt
  MeanFenamidone: 111.731
  log2FoldChange: 1.841
Gene Nov
  MeanFenamidone: 293.986
  log2FoldChange: -1.234
Gene Npcd
  MeanFenamidone: 1133.59
  log2FoldChange: -0.9792
Gene Nptxr
  MeanFenamidone: 1141.17
  log2FoldChange: -0.9956
Gene Nsg1
  MeanFenamidone: 1494.54
  log2FoldChange: -1.041
Gene Ostf1
  MeanFenamidone: 57.2673
  log2FoldChange: 1.821
Gene Pak7
  MeanFenamidone: 178.228
  log2FoldChange: -1.155
Gene Palm2
  MeanFenamidone: 187.623
  log2FoldChange: -1.363
Gene Parva
  MeanFenamidone: 750.571
  log2FoldChange: 1.383
Gene Pde4a
  MeanFenamidone: 55.8454
  log2FoldChange: -1.384
Gene Pdgfrb
  MeanFenamidone: 65.7902
  log2FoldChange: 1.771
Gene Peg3
  MeanFenamidone: 279.619
  log2FoldChange: -1.034
Gene Phgdh
  MeanFenamidone: 44.9863
  log2FoldChange: 1.982
Gene Plekho2
  MeanFenamidone: 97.0143
  log2FoldChange: 1.704
Gene Prkd1
  MeanFenamidone: 74.0866
  log2FoldChange: 1.635
Gene Prnd
  MeanFenamidone: 68.3899
  log2FoldChange: 1.64
Gene Ptplad2
  MeanFenamidone: 79.5198
  log2FoldChange: 1.728
Gene Ptpn21
  MeanFenamidone: 106.524
  log2FoldChange: 1.83
Gene Ptrf
  MeanFenamidone: 984.866
  log2FoldChange: 1.966
Gene Rabgap1l
  MeanFenamidone: 520.244
  log2FoldChange: -0.9736
Gene Rhbdf2
  MeanFenamidone: 55.9763
  log2FoldChange: 2.006
Gene Rnft2
  MeanFenamidone: 198.339
  log2FoldChange: -1.0831
Gene S100a10
  MeanFenamidone: 278.258
  log2FoldChange: 1.068
Gene Scn8a
  MeanFenamidone: 153.907
  log2FoldChange: -1.48
Gene Serpinf1, Fenamidone vs vehicle, 4 reps, DESeq
  log2FoldChange: 2.799
Gene Serpinh1
  MeanFenamidone: 2145.01
  log2FoldChange: 1.946
Gene Shc1
  MeanFenamidone: 147.232
  log2FoldChange: 1.966
Gene Slc25a39
  MeanFenamidone: 313.662
  log2FoldChange: 1.037
Gene Slc27a1
  MeanFenamidone: 198.44
  log2FoldChange: 1.347
Gene Smad3
  MeanFenamidone: 210.504
  log2FoldChange: 1.26
Gene Sms
  MeanFenamidone: 203.977
  log2FoldChange: -1.141
Gene Snn
  MeanFenamidone: 555.183
  log2FoldChange: -1.107
Gene Socs2
  MeanFenamidone: 55.3192
  log2FoldChange: -1.273
Gene Spock2
  MeanFenamidone: 430.664
  log2FoldChange: -1.232
Gene Sub1
  MeanFenamidone: 393.998
  log2FoldChange: -1.143
Gene Sugp2
  MeanFenamidone: 179.582
  log2FoldChange: -1.2
Gene Svil, Fenamidone vs vehicle, 4 reps, DESeq
  log2FoldChange: 1.812
Gene Swap70
  MeanFenamidone: 110.479
  log2FoldChange: 2.2944
Gene Syde1
  MeanFenamidone: 107.171
  log2FoldChange: 2.2079
Gene Syngr3
  MeanFenamidone: 372.498
  log2FoldChange: -1.2027
Gene Tmbim4
  MeanFenamidone: 87.3019
  log2FoldChange: 1.412
Gene Tmem43
  MeanFenamidone: 443.313
  log2FoldChange: 1.0765
Gene Tmem178
  MeanFenamidone: 19.6533
  log2FoldChange: -2.302
Gene Tmem178b
  MeanFenamidone: 158.718
  log2FoldChange: -1.098
Gene Tmtc3
  MeanFenamidone: 225.592
  log2FoldChange: 1.144
Gene Tnfrsf1a
  MeanFenamidone: 252.319
  log2FoldChange: 1.823
Gene Usp29
  MeanFenamidone: 116.921
  log2FoldChange: -1.148
Gene Wnt9a
  MeanFenamidone: 104.914
  log2FoldChange: 1.564
Gene Zfp219
  MeanFenamidone: 222.222
  log2FoldChange: 1.4117
